These are yes or no findings as the source states them, for the method shown. Binding seen in cells or lysates may run through a third protein. A yes stands for co-enrichment or nearness to the bait. Other partners may have been found. Tags and fused reporters may be left off the sequences shown.
T1: DnaJ-GFP fusion protein (Streptococcus pneumoniae D39) (UniProt P95830)
T1 sequence: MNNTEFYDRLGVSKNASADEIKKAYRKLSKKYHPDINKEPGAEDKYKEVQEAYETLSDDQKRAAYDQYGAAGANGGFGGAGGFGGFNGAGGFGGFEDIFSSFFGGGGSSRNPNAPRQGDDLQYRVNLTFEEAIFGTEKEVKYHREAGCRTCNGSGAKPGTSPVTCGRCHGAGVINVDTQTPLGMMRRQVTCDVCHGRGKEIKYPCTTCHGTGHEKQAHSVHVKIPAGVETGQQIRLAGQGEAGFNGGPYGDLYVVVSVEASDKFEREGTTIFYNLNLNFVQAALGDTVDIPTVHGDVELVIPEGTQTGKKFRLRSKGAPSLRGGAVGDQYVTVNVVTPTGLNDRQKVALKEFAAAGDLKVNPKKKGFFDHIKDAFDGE

Protein sequences, listed by entry. Tags and fused reporters are not part of them.
UniProt B1ICR4: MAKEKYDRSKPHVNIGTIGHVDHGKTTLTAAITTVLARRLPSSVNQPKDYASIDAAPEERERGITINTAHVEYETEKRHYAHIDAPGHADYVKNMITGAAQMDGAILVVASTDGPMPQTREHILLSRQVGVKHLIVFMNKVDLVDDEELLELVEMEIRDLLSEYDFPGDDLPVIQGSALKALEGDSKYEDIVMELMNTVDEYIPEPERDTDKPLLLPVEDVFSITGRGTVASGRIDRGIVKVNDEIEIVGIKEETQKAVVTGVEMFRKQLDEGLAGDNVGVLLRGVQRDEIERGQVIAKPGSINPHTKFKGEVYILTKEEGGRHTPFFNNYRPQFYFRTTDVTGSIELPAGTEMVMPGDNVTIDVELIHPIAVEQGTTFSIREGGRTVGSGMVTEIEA
UniProt Q04KG2: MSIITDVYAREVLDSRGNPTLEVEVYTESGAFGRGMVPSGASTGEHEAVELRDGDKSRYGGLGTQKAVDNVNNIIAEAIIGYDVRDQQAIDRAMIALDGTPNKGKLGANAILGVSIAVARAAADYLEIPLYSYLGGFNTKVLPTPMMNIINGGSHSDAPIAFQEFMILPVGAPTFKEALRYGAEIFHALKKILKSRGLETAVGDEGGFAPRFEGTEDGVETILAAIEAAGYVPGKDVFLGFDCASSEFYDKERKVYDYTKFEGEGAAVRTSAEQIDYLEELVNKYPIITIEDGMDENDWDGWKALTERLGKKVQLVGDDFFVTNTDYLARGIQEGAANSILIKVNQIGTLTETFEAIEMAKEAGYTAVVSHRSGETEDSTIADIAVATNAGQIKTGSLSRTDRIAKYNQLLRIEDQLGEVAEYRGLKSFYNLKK
UniProt Q04MH7: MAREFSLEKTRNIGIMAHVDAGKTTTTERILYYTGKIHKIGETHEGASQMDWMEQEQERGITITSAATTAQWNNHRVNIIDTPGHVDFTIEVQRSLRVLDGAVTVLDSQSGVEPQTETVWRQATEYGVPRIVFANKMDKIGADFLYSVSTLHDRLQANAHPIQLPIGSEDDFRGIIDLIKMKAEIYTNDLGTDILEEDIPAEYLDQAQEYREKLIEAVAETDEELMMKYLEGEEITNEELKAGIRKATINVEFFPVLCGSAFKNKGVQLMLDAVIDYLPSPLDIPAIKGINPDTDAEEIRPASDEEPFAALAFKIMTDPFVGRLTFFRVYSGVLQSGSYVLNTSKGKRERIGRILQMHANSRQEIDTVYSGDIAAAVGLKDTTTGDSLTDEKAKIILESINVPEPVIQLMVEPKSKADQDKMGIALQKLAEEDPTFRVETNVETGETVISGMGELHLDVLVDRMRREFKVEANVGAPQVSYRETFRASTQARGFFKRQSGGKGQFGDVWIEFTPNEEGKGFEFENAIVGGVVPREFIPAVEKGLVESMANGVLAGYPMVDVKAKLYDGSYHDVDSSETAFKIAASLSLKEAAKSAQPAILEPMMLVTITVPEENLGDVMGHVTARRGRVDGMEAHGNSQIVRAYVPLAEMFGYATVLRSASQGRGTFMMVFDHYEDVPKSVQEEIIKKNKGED
UniProt Q04LY0: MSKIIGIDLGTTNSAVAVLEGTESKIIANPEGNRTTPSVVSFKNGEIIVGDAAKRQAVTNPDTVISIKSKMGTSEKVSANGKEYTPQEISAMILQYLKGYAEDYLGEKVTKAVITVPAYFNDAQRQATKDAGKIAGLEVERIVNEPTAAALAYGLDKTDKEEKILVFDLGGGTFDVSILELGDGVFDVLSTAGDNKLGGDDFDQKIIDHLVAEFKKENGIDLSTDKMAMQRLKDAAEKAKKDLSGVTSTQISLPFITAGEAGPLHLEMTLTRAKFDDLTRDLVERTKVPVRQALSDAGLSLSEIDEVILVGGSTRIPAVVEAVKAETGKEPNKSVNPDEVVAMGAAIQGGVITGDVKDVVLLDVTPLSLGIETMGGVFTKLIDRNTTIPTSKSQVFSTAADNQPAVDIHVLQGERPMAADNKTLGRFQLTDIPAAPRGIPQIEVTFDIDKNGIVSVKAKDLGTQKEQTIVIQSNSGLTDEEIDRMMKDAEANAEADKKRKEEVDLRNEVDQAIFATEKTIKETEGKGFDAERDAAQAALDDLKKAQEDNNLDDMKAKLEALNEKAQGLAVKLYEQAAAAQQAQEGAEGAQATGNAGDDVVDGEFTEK
UniProt A0A0H2US80: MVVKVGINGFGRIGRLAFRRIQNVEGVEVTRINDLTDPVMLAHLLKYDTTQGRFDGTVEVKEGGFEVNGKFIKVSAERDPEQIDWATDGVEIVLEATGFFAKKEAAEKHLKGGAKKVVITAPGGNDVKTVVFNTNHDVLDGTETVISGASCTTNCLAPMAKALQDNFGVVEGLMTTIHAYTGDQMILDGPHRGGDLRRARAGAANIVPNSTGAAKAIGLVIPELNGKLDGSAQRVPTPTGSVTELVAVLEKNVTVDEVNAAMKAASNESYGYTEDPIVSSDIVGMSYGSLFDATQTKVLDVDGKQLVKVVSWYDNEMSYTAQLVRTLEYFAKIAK


Target: T1, DnaJ-GFP fusion protein (Streptococcus pneumoniae D39)
Test: affinity purification with mass spectrometry; co-IP of DnaJ-GFP from cleared lysate of D39-dnaJ-gfp with GFP antibody and protein G-agarose beads, 4 °C overnight, five PBS washes; SDS-PAGE bands that differed from wild type D39 identified by MALDI-TOF MS

| Molecule | binding |
| --- | --- |
| tuf gene product/translation elongation factor Tu (from UniProt B1ICR4 1-398) | binds |
| eno gene product/phosphopyruvate hydratase (from UniProt Q04KG2 1-434) (enzyme) | binds |
| fusA gene product/translation elongation factor G (from UniProt Q04MH7 1-693) | binds |
| chaperone protein DnaK (from UniProt Q04LY0 1-607) | binds |
| gap gene product/glyceraldehyde-3-phosphate dehydrogenase, type I (from UniProt A0A0H2US80 1-335) (enzyme) | binds |
| bi-functional acetaldehyde-CoA/alcohol dehydrogenase (enzyme) | binds |
| rplF gene product/ribosomal protein L6 | binds |
| spxB gene product/pyruvate oxidase (enzyme, UniProt Q54970 1-591) MTQGKITASAAMLNVLKTWGVDTIYGIPSGTLSSLMDALAEDKDIRFLQVRHEETGALAAVMQAKFGGSIGVAVGSGGPGATHLINGVYDAAMDNTPFLAILGSRPVNELNMDAFQELNQNPMYNGIAVYNKRVAYAEQLPKVIDEACRAAVSKKGPAVVEIPVNFGFQEIDENSYYGSGSYERSFIAPALNEVEIDKAVEILNNAERPVIYAGFGGVKAGEVITELSRKIKAPIITTGKNFEAFEWNYEGLTGSAYRVGWKPANEVVFEADTVLFLGSNFPFAEVYEAFKNTEKFIQVDIDPYKLGKRHALDASILGDAGQAAKAILDKVNPVESTPWWRANVKNNQNWRDYMNKLEGKTEGELQLYQVYNAINKHADQDAIYSIDVGNTTQTSTRHLHMTPKNMWRTSPLFATMGIALPGGIAAKKDNPDRQVWNIMGDGAFNMCYPDVITNVQYDLPVINLVFSNAEYGFIKNKYEDTNKHLFGVDFTNADYAKIAEAQGAVGFTVDRIEDIDAVVAEAVKLNKEGKTVVIDARITQHRPLPVEVLELDPKLHSEEAIKAFKEKYEAEELVPFRLFLEEEGLQSRAIK | binds |
| rplC gene product/ribosomal protein L3 (protein, UniProt B1I8J8 1-208) MTKGILGKKVGMTQIFTEAGELIPVTVIEATPNVVLQVKTVETDGYNAIQVGFDDKREVLSNKPAKGHVAKANTAPKRFIREFKNVEGLEVGAEITVETFAAGDVVDVTGTSKGKGFQGVIKRHGQSRGPMAHGSRYHRRPGSMGPVAPNRVFKGKNLAGRMGGDRVTIQNLEVVQVVPEKNVILIKGNVPGAKKSLITIKSAVKAGK | binds |
